Record: PubChem BioAssay AID504784 (Drosophila RNAi Screening Center, 2011)

Test: 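Search for regulators of lipid droplet storage in oleate-fed fly cells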 (primary screen)
Cells: Drosophila Kc167 embryonic cells
Reagents: long dsRNA against Drosophila genes, about 250 ng dsRNA per well
Timing: 4 days
Treatment: cells fed 400 µM oleic acid bound to BSA
Measured: 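Cells imaged and segmented; ratio of lipid droplet area to nuclear area, log-transformed, then normalised as a B-score over the screen; higher means more stored lipid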
Reading the numbers: droplet/nuclear area B-score: higher = more stored lipid (overstorage)
In all, the deposit lists about 17,000 reagents; this is a random part of those with a known target gene and a result. 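Each column is one replicate's B-score; the combined score over replicates was not deposited, so single values may mislead.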 The numbers tell different reagents against one gene apart. A plus sign joins genes that one reagent is predicted to hit. Not all columns of the deposit are shown.

What did the screen give for CG7432?
droplet/nuclear area B-score, replicate 1: -0.771

What did the screen give for Ipo9 (Importin 9)?
droplet/nuclear area B-score, replicate 1: -1

What is on record for Idgf6 (Imaginal disc growth factor 6)?
droplet/nuclear area B-score, replicate 1: 1.63

How did the screen score PGRP-SB2 (Peptidoglycan recognition protein SB2)?
droplet/nuclear area B-score, replicate 1: 0.129

With CG30429, what does the deposit list?
droplet/nuclear area B-score, replicate 1: -0.143

With DAT (Dopamine transporter), what was measured?
droplet/nuclear area B-score, replicate 1: 0.28

For GstE6 (Glutathione S transferase E6), what does the deposit list?
droplet/nuclear area B-score, replicate 1: -1.67

Which result is listed for CG8219?
droplet/nuclear area B-score, replicate 1: -0.107

How did the screen score Larp4B (La-related protein 4B) #1?
droplet/nuclear area B-score, replicate 1: -0.581

For Larp4B (La-related protein 4B) #2, how do the results read?
droplet/nuclear area B-score, replicate 1: -1.48

With SNCF (SoxNeuro Co-Factor), how do the results read?
droplet/nuclear area B-score, replicate 1: 1.46

What is on record for Gapvd1 (GTPase activating protein and VPS9 domains 1)?
droplet/nuclear area B-score, replicate 1: 1.84

With Als2 (Amyotrophic lateral sclerosis 2), how do the results read?
droplet/nuclear area B-score, replicate 1: 0.396

What did the screen give for cola + swif #1?
droplet/nuclear area B-score, replicate 1: 0.00267

How did the screen score cola + swif #2?
droplet/nuclear area B-score, replicate 1: -1.07

Which result is listed for CG15646?
droplet/nuclear area B-score, replicate 1: -1.26

How did the screen score bmm (brummer)?
droplet/nuclear area B-score, replicate 1: 4.65

What did the screen give for CG13634?
droplet/nuclear area B-score, replicate 1: -1.28

With CG32536 + CG32537, what was measured?
droplet/nuclear area B-score, replicate 1: -0.112

5 entries from above, sorted by “droplet/nuclear area B-score, replicate 1”, descending:
bmm (brummer): droplet/nuclear area B-score, replicate 1 = 4.65
CG32536 + CG32537: droplet/nuclear area B-score, replicate 1 = -0.112
cola + swif #2: droplet/nuclear area B-score, replicate 1 = -1.07
CG15646: droplet/nuclear area B-score, replicate 1 = -1.26
CG13634: droplet/nuclear area B-score, replicate 1 = -1.28

The results go on.
For Cyp6a23 (Cytochrome P450 6a23), how do the results read?
droplet/nuclear area B-score, replicate 1: 2.13

For Tmem43 (Transmembrane protein 43), what does the deposit list?
droplet/nuclear area B-score, replicate 1: 2.57

What is on record for Dic1?
droplet/nuclear area B-score, replicate 1: 1.13

What did the screen give for Tsen2 (tRNA splicing endonuclease subunit 2)?
droplet/nuclear area B-score, replicate 1: -0.185

What did the screen give for CG17807?
droplet/nuclear area B-score, replicate 1: -2.78

What did the screen give for CG17199?
droplet/nuclear area B-score, replicate 1: 0.807

With dos #1, how do the results read?
droplet/nuclear area B-score, replicate 1: 0.212

For dos #2, what was measured?
droplet/nuclear area B-score, replicate 1: 0.673

For dos #3, how do the results read?
droplet/nuclear area B-score, replicate 1: -3

What did the screen give for Mtr4 (Mtr4 helicase)?
droplet/nuclear area B-score, replicate 1: -0.562

What is on record for CG17169?
droplet/nuclear area B-score, replicate 1: 1.67

What did the screen give for CG14443?
droplet/nuclear area B-score, replicate 1: 2.25

How did the screen score Idgf3 (Imaginal disc growth factor 3)?
droplet/nuclear area B-score, replicate 1: 0.126

With meso18E, what does the deposit list?
droplet/nuclear area B-score, replicate 1: 1.6

Which result is listed for Sam-S (S-adenosylmethionine Synthetase)?
droplet/nuclear area B-score, replicate 1: -0.0664

How did the screen score CG10104?
droplet/nuclear area B-score, replicate 1: -0.691

For HIPP1 (HP1 and insulator partner protein 1), how do the results read?
droplet/nuclear area B-score, replicate 1: 2.48

Which result is listed for Spn43Ad (Serpin 43Ad)?
droplet/nuclear area B-score, replicate 1: -0.461

How did the screen score Tdg (Thymine DNA glycosylase) #1?
droplet/nuclear area B-score, replicate 1: 0.689

What is on record for Tdg (Thymine DNA glycosylase) #2?
droplet/nuclear area B-score, replicate 1: -1.19

What did the screen give for CG31213 #1?
droplet/nuclear area B-score, replicate 1: -3.36

For CG31213 #2, how do the results read?
droplet/nuclear area B-score, replicate 1: 0.408
